Assay results from patent US6699716B2, “In vivo induction for enhanced function of isolated hepatocytes” (priority 1999, dated 2004).
At least one compound was matched to its structure with a doubt left.

Tested on: CYPIIB1
Test: Diazepam clearance by in vivo induced hepatocytes
Parameters: species or system porcine
Settings: induction
Procedure: Cells were isolated using a modification of the Seglen method which has been described earlier (Seglen, P., Preparation of isolated rat liver cells, In Meth. in Cell. Bio. (D M Prescott, ed.), vol. 13. Academic Press (NY, N.Y.), 1976.). Briefly, the exposed liver was cannulated and perfused in situ with cold Lactated Ringers (Baxter, Deerfield, Ill.) at 250 ml/minute before excision and transport to the lab. The liver was quickly warmed and perfused with 0.2% EDTA at 37° C. This was followed by perfusion of 1 mg/ml collagenase (Life Technologies, Grand Island, N.Y.) at 37° C. until digestion appeared complete (mean digestion 22±4 min). Further digestion was stopped with the addition of cold HBSS (BioWhittaker, Walkersville, Md.) supplemented with 10% NBCS (Hyclone, Logan, Utah). […] Viability was determined by Trypan blue exclusion and Calcein AM staining (Molecular Probes, Eugene, Oreg.). […]
Diazepam clearance was assayed in the cultures of Example 1 using a method similar to that of Jauregui et al. Xenobiotic induction of P-450 PB-4 (IIB1) and P-450c (IA1) and associated monooxygenase activities in primary cultures of adult rat hepatocytes. […] This reverse phase HPLC run was conducted at a flow rate of 1.0 ml/min through a micro-Bondpak C18 column (Waters) with absorbance set at 254 nm. […]

CCC1(c2ccccc2)C(=O)NC(=O)NC1=O [Phenobarbital, phenobarbital]
diazepam clearance rates: increased
